PMC5446775, “Interactions of 172 plant extracts with human organic anion transporter 1 (SLC22A6) and 3 (SLC22A8): a study on herb-drug interactions” (PeerJ, 2017)
Where “and” joins values, the source holds several entries; their conditions need not be identical. Equal values may be shown once.

Experiment: Pharmacokinetics of furosemide in rats with and without Juncus effusus extract
Type: in vivo
Conditions: for plasma concentration of FS, Figure 4 raw data (single rats): FS alone

## NS(=O)(=O)c1cc(C(=O)O)c(NCc2ccco2)cc1Cl [FS, furosemide]
2 min
  plasma concentration of FS, Figure 4 raw data (single rats): 85.36 (2×) and 91.84 and 121.6528 and 181.7607
5 min
  plasma concentration of FS, Figure 4 raw data (single rats): 69.52 (2×) and 70.85 and 112.3429 and 66.57
10 min
  plasma concentration of FS, Figure 4 raw data (single rats): 50.56 (2×) and 61.96 and 54
15 min
  plasma concentration of FS, Figure 4 raw data (single rats): 53.5826 (2×) and 47.05
30 min
  plasma concentration of FS, Figure 4 raw data (single rats): 40 (2×) and 41.78 and 72.78 and 37.85
60 min
  plasma concentration of FS, Figure 4 raw data (single rats): 27.72 (2×) and 29.37 and 50.94 and 37.19
90 min
  plasma concentration of FS, Figure 4 raw data (single rats): 22.57 (2×) and 26.18 and 43.34 and 30.34
120 min
  plasma concentration of FS, Figure 4 raw data (single rats): 20.06 (2×) and 23.52 and 24.43 and 35.69
male, Sprague-Dawley, rat, plasma, iv, FS 10 mg/kg i.v. alone, rats, read-out: AUC0–inf_obs of FS (converted)
  AUC(0-inf): 167 µg·h/mL
